Experimental data reported in patent publication US7638482B2, “Protein kinase C zeta as a drug target for arthritis and other inflammatory diseases” (Wyeth, priority 2003, dated 2009).
For some of these results: At least one peptide structure holds a part that was inferred or is arguable (an end, a ring closure or a residue). At least one compound was matched to its structure with a doubt left. Where a SMILES comes first, the peptide text is derived from it. The star is where a group is joined. Myristoyl = CCCCCCCCCCCCCC(=O)*

Legend:
[1] = system: primary bovine chondrocytes; assay: Proteoglycan degradation in primary bovine chondrocyte pellet culture (release into media / retention in cell pellet, DMMB); format: cell-based
Method: Full-thickness bovine articular cartilage slices were dissected under aseptic conditions, rinsed four times in PBS, and subjected to pronase and collagenase digestion (1 mg/ml pronase (Calbiochem, San Diego, Calif.) for 30 minutes and 1 mg/ml Collagenase P (Roche Diagnostics Corporation, Indianapolis, Ind.) overnight at 37° C. in DME without serum) to isolate chondrocytes embedded in the cartilage extracellular matrix. The digest was filtered through a 70 micron Falcon™ cell strainer (BD Biosciences, San Jose, Calif.) and washed twice in DME containing 10% FBS. Typically 2-4×10^8 cells were obtained from a calf metacarpophalangeal joint surface. Cells were plated in monolayer in six-well plates at density of 2×10^6 cells/well. For pellet culture, cells were resuspended in growth media [HL-1 media (Cambrex Corporation, East Rutherford, N.J.), penicillin+streptomycin, glutamine, 50 μg/ml ascorbate, and 10% FBS] at 1×10^6 cells/ml, and 1 ml aliquots of cells were transferred to 15 ml sterile Falcon centrifuge tubes. The cells were centrifuged at 200×g for 5 min at 4° C. and the resulting cell pellets were cultured as described previously (Xu et al. (1996) Endocrinology 137:3557-65). Cell media were collected and stored for collagen and proteoglycan assays, and cells were refed with fresh media (3 ml/well, 1 ml/tube) every 3-4 days. Pellet cultures were maintained for 3 weeks, at which time the pellets were harvested and either digested with 0.5 ml of 300 μg/ml papain at 65° C. for 3-6 hrs for dimethylmethylene blue (DMMB) dye assays or prepared for histology.
Cells were incubated with the inhibitor for 3 hrs prior to the addition of either TNF or IL-1. […] SN50M, which served as a negative control, is the same peptide with amino acid changes to abolish NF-κB-blocking activity. SN50 and SN50M are available from, e.g., Biomol Research Laboratories, Inc. (Plymouth Meeting, Pa.).
To determine whether ζPKC inhibitors can inhibit TNF-mediated proteoglycan degradation, primary bovine chondrocytes were cultured with various concentrations of TNF for 5 days with or without (1) the myristoylated ζPKC peptide pseudosubstrate [herein termed “2089”; synthesized in-house; equivalent to SEQ ID NO:6; available from, e.g., BioSource International, Inc., USA (Camarillo, Calif.)], or (2) the small molecule inhibitor Ro-31-8220 (Sigma-RBI, Natick, Mass.). The inhibitors were added 3 hrs prior to addition of TNF.
To determine whether myristoylated ζPKC peptide pseudosubstrate 2089 can inhibit cytokine-mediated proteoglycan degradation in a dose-dependent manner, primary bovine chondrocytes were cultured with either 10 ng/ml TNF or 1 ng/ml IL-1 for 4 days after addition of various concentrations of 2089.
Articular bovine chondrocytes were prepared as previously detailed for the pellet assay. […] Two inhibitors were added at various doses. […] The other inhibitor, chelerythrine chloride (CC), is a competitive inhibitor of the phorbol ester-binding site. CC competes for the phorbol ester-binding domain of the conventional and novel PKC family members and inhibits them; however, as the a typical PKCs (e.g., ζPKC; Ca^++-independent and diacylglycerol-independent PKCs) lack this binding domain, they are not inhibited by CC (e.g., Herbert et al. (1990) Biochem. Biophys. Res. Commun. 172:993-99).

ζPKC = biological target: T1, ζPKC (Homo sapiens, UniProt Q05513); conditions: literature (Herbert et al. 1990); cited from earlier work
T1 sequence (Q05513 1-592): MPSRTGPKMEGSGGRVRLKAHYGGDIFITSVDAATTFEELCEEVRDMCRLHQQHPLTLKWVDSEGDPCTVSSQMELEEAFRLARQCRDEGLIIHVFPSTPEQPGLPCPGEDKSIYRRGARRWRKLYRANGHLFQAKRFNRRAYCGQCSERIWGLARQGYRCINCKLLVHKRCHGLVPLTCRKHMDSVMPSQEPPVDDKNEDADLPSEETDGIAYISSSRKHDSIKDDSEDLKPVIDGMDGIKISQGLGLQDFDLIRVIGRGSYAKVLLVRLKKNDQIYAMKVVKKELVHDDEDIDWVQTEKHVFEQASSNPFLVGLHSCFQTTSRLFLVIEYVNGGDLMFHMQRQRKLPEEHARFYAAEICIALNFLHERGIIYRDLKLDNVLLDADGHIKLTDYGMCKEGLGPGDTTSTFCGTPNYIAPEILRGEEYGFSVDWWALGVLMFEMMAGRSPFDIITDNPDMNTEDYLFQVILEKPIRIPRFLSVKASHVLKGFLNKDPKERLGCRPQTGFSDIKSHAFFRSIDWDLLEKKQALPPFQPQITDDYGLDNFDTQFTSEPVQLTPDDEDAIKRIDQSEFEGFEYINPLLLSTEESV

Structure (SMILES)	TNFα-mediated release of proteoglycan into the media ([1]; CC at various doses, TNFα 100 ng/ml, FIG. 7)	inhibition of atypical PKCs (e.g., ζPKC) (ζPKC)	TNF-mediated proteoglycan degradation ([1]; 50 μM 2089, TNF 10 and 100 ng/ml, 5 days, FIG. 3)	proteoglycan release into the media ([1]; highest dose 100 μM 2089, 10 ng/ml TNF or 1 ng/ml IL-1, 4 days, FIG. 4)	proteoglycan degradation in the absence of TNF ([1]; no TNF, 5 days, FIG. 3)	proteoglycan pellet retention and release into the media in the absence of cytokine ([1]; no cytokine, 4 days, FIG. 4)	TNF- and IL-1-mediated proteoglycan degradation, dose dependence ([1]; various concentrations of 2089, 10 ng/ml TNF or 1 ng/ml IL-1, 4 days, FIG. 4)
COc1ccc2c(c[n+](C)c3c4cc5c(cc4ccc23)OCO5)c1OC [CC, chelerythrine chloride]	not blocked	not inhibited	–	–	–	–	–
CCCCCCCCCCCCCC(=O)N[C@@H](CO)C(=O)N[C@H](C(=O)N[C@@H](Cc1ccc(O)cc1)C(=O)N[C@@H](CCCNC(=N)N)C(=O)N[C@@H](CCCNC(=N)N)C(=O)NCC(=O)N[C@@H](C)C(=O)N[C@@H](CCCNC(=N)N)C(=O)N[C@@H](CCCNC(=N)N)C(=O)N[C@@H](Cc1c[nH]c2ccccc12)C(=O)N[C@@H](CCCNC(=N)N)C(=O)N[C@@H](CCCCN)C(=O)N[C@@H](CC(C)C)C(=O)O)[C@@H](C)CC [compound 2089] (Myristoyl-SIYRRGARRWRKL-OH)	–	–	significantly inhibited	completely inhibiting	inhibited proteoglycan degradation	increased cell pellet retention of proteoglycan and decreased release of proteoglycan into the media	inhibited both TNF- and IL-1-mediated proteoglycan degradation in a dose-dependent manner
